Experimental data from paper PMC9022998.
These are yes or no findings as the source states them, for the method shown. Binding seen in cells or lysates may run through a third protein. Some binding calls cover weakened binding; strength is not graded here. Where a sequence is shown, tags or fusion partners need not be part of it.

Chains of the proteins cited; added tags and fusions are not shown. Lines headed by an entry give the natural chain unless they say otherwise; changes in a name come on top. A line that says so, or that is headed by a name, gives the form on record, which may keep a tag or linker. Residues count along the entry.
α1-antitrypsin (AAT), wild type, C-terminally FLAG-tagged (P01009, residues 25-418): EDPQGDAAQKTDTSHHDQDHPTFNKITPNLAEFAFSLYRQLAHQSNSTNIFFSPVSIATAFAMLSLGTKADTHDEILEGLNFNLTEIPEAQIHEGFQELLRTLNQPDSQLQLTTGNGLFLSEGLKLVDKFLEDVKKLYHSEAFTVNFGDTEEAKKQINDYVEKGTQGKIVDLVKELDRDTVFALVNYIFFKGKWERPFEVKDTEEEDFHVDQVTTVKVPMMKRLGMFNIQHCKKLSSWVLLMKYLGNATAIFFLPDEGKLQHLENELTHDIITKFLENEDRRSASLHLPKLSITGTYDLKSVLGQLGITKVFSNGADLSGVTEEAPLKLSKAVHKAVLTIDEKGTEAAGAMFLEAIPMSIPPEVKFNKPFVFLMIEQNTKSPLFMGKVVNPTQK
α1-antitrypsin (AAT) N70Q mutant, C-terminally FLAG-tagged (P01009, form named): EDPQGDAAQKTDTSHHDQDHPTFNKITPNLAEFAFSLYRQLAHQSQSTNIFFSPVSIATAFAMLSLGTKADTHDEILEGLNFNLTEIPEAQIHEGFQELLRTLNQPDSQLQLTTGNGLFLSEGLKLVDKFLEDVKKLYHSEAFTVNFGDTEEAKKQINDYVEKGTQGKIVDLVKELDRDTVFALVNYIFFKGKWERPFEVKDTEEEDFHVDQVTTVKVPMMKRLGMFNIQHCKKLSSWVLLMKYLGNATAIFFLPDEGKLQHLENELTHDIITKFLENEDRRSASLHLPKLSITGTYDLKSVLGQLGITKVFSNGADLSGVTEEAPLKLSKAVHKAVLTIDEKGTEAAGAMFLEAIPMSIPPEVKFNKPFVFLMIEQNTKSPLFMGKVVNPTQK
α1-antitrypsin (AAT) N271Q mutant, C-terminally FLAG-tagged (P01009, form named): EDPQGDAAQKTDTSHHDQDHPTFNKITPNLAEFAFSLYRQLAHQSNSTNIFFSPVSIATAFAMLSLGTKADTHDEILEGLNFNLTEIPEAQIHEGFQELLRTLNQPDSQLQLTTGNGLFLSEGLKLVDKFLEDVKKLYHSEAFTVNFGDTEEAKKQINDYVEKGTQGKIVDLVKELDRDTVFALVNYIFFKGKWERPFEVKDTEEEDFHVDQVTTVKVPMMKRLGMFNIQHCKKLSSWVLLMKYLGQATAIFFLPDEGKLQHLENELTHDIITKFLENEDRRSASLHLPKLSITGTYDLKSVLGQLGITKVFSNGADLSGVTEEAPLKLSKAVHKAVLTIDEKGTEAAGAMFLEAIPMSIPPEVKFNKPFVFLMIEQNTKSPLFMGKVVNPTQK

T1: LMAN1, Myc-tagged (UniProt P49257)
T1 sequence: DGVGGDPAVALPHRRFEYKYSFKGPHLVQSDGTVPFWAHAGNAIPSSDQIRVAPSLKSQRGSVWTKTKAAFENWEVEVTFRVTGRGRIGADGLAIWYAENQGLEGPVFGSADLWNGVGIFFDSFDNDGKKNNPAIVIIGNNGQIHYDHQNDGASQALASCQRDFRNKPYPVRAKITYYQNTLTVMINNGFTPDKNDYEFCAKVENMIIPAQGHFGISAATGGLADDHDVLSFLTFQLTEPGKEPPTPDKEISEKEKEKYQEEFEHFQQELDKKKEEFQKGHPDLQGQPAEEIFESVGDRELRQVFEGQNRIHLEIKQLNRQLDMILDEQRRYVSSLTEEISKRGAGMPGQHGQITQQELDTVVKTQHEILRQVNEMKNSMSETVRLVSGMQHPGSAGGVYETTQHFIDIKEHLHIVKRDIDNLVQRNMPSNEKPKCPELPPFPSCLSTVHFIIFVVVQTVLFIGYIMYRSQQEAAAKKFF


Key:
LMAN1, Myc-tagged = biological target: T1, LMAN1, Myc-tagged; experiment: co-IP; FLAG-tagged AAT and Myc-tagged LMAN1 co-expressed in WT and MCFD2 KO 293T cells, also in MCFD2 KO cells stably expressing WT MCFD2 or MCFD2 D129E; lysis in 50 mM Tris-HCl pH 7.5, 150 mM NaCl, 1% Nonidet P-40, 0.05% SDS, 2 mM CaCl2; immunoprecipitation with anti-AAT, anti-FLAG or anti-Myc antibody, immunoblotting
[1] = biological target: α1-antitrypsin (AAT), wild type, C-terminally FLAG-tagged (human) (UniProt P01009); experiment: as above

Row | binding (LMAN1, Myc-tagged) | binding [1] | Molecule
1 | binds |  | α1-antitrypsin (AAT) N70Q mutant, C-terminally FLAG-tagged (from UniProt P01009 25-418)
2 | binds |  | α1-antitrypsin (AAT) N271Q mutant, C-terminally FLAG-tagged (from UniProt P01009 25-418)
3 | binds |  | α1-antitrypsin (AAT), wild type, C-terminally FLAG-tagged (from UniProt P01009 25-418)
4 |  | binds | LMAN1, Myc-tagged (protein, UniProt P49257 31-510) DGVGGDPAVALPHRRFEYKYSFKGPHLVQSDGTVPFWAHAGNAIPSSDQIRVAPSLKSQRGSVWTKTKAAFENWEVEVTFRVTGRGRIGADGLAIWYAENQGLEGPVFGSADLWNGVGIFFDSFDNDGKKNNPAIVIIGNNGQIHYDHQNDGASQALASCQRDFRNKPYPVRAKITYYQNTLTVMINNGFTPDKNDYEFCAKVENMIIPAQGHFGISAATGGLADDHDVLSFLTFQLTEPGKEPPTPDKEISEKEKEKYQEEFEHFQQELDKKKEEFQKGHPDLQGQPAEEIFESVGDRELRQVFEGQNRIHLEIKQLNRQLDMILDEQRRYVSSLTEEISKRGAGMPGQHGQITQQELDTVVKTQHEILRQVNEMKNSMSETVRLVSGMQHPGSAGGVYETTQHFIDIKEHLHIVKRDIDNLVQRNMPSNEKPKCPELPPFPSCLSTVHFIIFVVVQTVLFIGYIMYRSQQEAAAKKFF
